Drawing on doi:10.1101/2023.03.28.534447, this text covers binding for 1 molecule.

The assay addresses T1, SPRING (C12ORF49) (human) (UniProt Q9H741).
T1 sequence: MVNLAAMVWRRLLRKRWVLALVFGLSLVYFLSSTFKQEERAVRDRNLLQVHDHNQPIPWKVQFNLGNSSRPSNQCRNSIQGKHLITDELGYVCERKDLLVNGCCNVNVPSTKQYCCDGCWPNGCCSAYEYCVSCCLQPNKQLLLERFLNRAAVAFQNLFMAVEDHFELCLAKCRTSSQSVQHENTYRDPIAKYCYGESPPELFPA
The experiment in a line: co-IP.

No constants are given. Whether binding was seen depends on the method and setting. Binding seen in cells or lysates may run through a third protein. Some binding calls cover weakened binding; strength is not graded here.

B1: S1P mature C-form lacking the pro-domain (enzyme, UniProt Q14703 187-1052)
chain: RAIPRQVAQTLQADVLWQMGYTGANVRVAVFDTGLSEKHPHFKNVKERTNWTNERTLDDGLGHGTFVAGVIASMRECQGFAPDAELHIFRVFTNNQVSYTSWFLDAFNYAILKKIDVLNLSIGGPDFMDHPFVDKVWELTANNVIMVSAIGNDGPLYGTLNNPADQMDVIGVGGIDFEDNIARFSSRGMTTWELPGGYGRMKPDIVTYGAGVRGSGVKGGCRALSGTSVASPVVAGAVTLLVSTVQKRELVNPASMKQALIASARRLPGVNMFEQGHGKLDLLRAYQILNSYKPQASLSPSYIDLTECPYMWPYCSQPIYYGGMPTVVNVTILNGMGVTGRIVDKPDWQPYLPQNGDNIEVAFSYSSVLWPWSGYLAISISVTKKAASWEGIAQGHVMITVASPAETESKNGAEQTSTVKLPIKVKIIPTPPRSKRVLWDQYHNLRYPPGYFPRDNLRMKNDPLDWNGDHIHTNFRDMYQHLRSMGYFVEVLGAPFTCFDASQYGTLLMVDSEEEYFPEEIAKLRRDVDNGLSLVIFSDWYNTSVMRKVKFYDENTRQWWMPDTGGANIPALNELLSVWNMGFSDGLYEGEFTLANHDMYYASGCSIAKFPEDGVVITQTFKDQGLEVLKQETAVVENVPILGLYQIPAEGGGRIVLYGDSNCLDDSHRQKDCFWLLDALLQYTSYGVTPPSLSHSGNRQRPPSGAGSVTPERMEGNHLHRYSKVLEAHLGDPKPRPLPACPRLSWAKPQPLNETAPSNLWKHQKLLSIDLDKVVLPNFRSNRPQVRPLSPGESGAWDIPGGIMPGRYNQEVGQTIPVFAFLGAMVVLAFFVVQINKAKSRPKRRKPRVKRPQLMQQVHPPKTPSV
With B1, the binding result was “binds”.
